The test system of the test is CD2F1 mice, intracerebral L1210 leukemia, survival T/C. The experiment in a line: NCI In Vivo Anticancer Drug Screen. Data for tumor model L1210 Leukemia (intracerebral) in CD2F1 (CDF1) mice. The conditions noted are these: T/C endpoint: median survival time, schedule: Q01DX005 (ip), vehicle: suspension in saline, higher T/C = longer survival. How it is done: The antitumor activity of compounds was measured in mice bearing transplantable tumors. Survival or tumor size were measured and the results are expressed as the measurement made in the treated group (T) divided by the measurement made in the vehicle treated control group (C). The tumor model used in this assay is L1210 Leukemia (intracerebral) in CD2F1 (CDF1) mice

The structures appear in SMILES notation. The list does not hold the whole screen: it covers a few groups of compounds. Not every dose and run of a compound is shown. T/C is the treated group as % of the vehicle group. Where survival is the endpoint, this PubChem deposit counts one and a half times the control or more as active, and values a quarter to a half above the control carry no call in these data; other NCI protocols may use other cut-offs. Schedule codes are those of the source, taken here to give the interval after Q, in days (D) or hours (H), and the number of doses after X. Some entries show no survivor count and are marked so; the dose need not have been tolerated.

Regarding `CC(=O)OCC12CCC(C)=CC1OC1C(O)C(OC(C)=O)C2(C)C12CO2` (stereo not drawn), the T/C (dose: 2.0 mg/kg/injection) was 114 % of control [survivor count not shown], the T/C (dose: 4.0 mg/kg/injection) was 126 % of control [survivor count not shown] and the T/C (dose: 8.0 mg/kg/injection) is 119 % of control [survivor count not shown].

The values are drawn from PubChem BioAssay AID260 (DTP/NCI, 2004).
